Experimental data reported in PubChem BioAssay AID1347426 (Functional Genomics Laboratory (NCATS/FGL), 2020).
Among all 31,000 sequences or so, about 1,400 (4.5%) were called active.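 The calls were made as follows: active = median seed-adjusted z-score above 1 or below -1; inactive = the rest.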 The list shows a part of the results.

assay: Novel Modifiers of Survival Motor Neuron (SMN) Protein: Gene Identification via Genome-wide siRNA Screen; settings: HEK293T SMN2-luciferase reporter, siRNA knockdown, 72 h; actives lie on both sides;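 also: luminescence tracks full-length SMN protein made from the SMN2 reporter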
How it was run: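 Genome-wide siRNA screen (10418 genes, 3 siRNAs each, 1 pmol per well) by reverse transfection in HEK293T cells stably carrying an SMN2-luciferase reporter; luminescence after 72 hours, normalized to negative-control siRNA, log10-transformed, MAD-scored.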

Sequence | median seed-adjusted z-score
GGAUUGGAGACUUACGUUATT against ADIPOQ | inactive: 0.557
CCAAGUGACAAACAAGUAATT against TRDN | inactive: 0.195
GGAUGUAUACGGAGGAGAATT against WBSCR17 | inactive: 0
CAAUGGUGUCUACAAGAUUTT against SLCO1C1 | inactive: 0.071
GUUUCUGGGUGAUAAAAUUTT against FCGR2B | inactive: -0.163
CCUUGCAACAUGUUCGUGATT against KRIT1 | inactive: -0.447
CCAUCAAGAGGUUCCCGUATT against ABCA3 | inactive: -0.363
CAAUAUGGGUACCUACAGATT against MMP19 | inactive: 0.43
GUCCAGGAAUUCAUCGAUATT against BCS1L | inactive: 0.167
GGACUGGGAUUUCGAGCAATT against NETO2 | inactive: -0.136
GGAGAUAGAACCUUCCAGATT against HLA-B | inactive: -0.355
GGAUGUACUUUCCAAACAATT against MBTPS1 | inactive: -0.551
CGCUGGAUGCCGAAAAUGATT against ABCB10 | inactive: -0.1
GGAGAGAUAUCUGCCCUCGTT against MARVELD3 | inactive: -0.021
GGACAGUACCUGUUUAAGUTT against METT10D | inactive: 0.455
GCUCCUCUCUUAUUCGACATT against ZNF215 | inactive: 0.485
CGUCACUGAGCUCAAGAAATT against PFKL | inactive: 0
GCAAAUGUCAGAGAUUGAATT against SFXN5 | inactive: 0
CGAGUACUCUCAAGUUUUATT against FECH | inactive: 0.135
GGACAAGUUAGGGUUCCAATT against DND1 | inactive: 0.157
GGAGAGAGCGUGUCCUACATT against SIRPA | inactive: -0.153
UGAUGACCUCGGCUCCUAUTT against ARFGAP1 | inactive: 0.123

Sequence | median seed-adjusted z-score
GGAUACGAGCUAUUUGAGATT against ZNF791 | inactive: 0.219
GCAAGAACCUUUCAAGGCATT against ADORA2A | inactive: 0
AGUGACAGAGUACAAGAUATT against EIF3G | inactive: -0.198
GGGUGAAGAUUUACGACAUTT against CGN | inactive: 0.33
GGAUUAGCCGGAACAACAATT against CDH12 | inactive: -0.0663
AGAGCAUCGUAACCCUGCATT against PMP2 | inactive: 0.00618
GAGCAUCCACAAGAAUCUATT against GCAT | inactive: 0.672
GCUGGGCAGAUGACCUCUATT against HCRTR1 | inactive: 0.739
GGAGGACUGUUGGAAUUGUTT against PCCB | inactive: 0.137
CUCCUGUACUCUUCAGAGATT against PTOV1 | inactive: 0.115
CACUCACACCAUCCUAUGATT against GNG13 | inactive: -0.516
GGCUAUUUUUGAUCACAUUTT against NAT2 | inactive: -0.0495
CAAUCUAUCAACAACUAAATT against TACR3 | inactive: 0.0904
CCAGCGAGCUGAUCCUCAATT against MYCN | inactive: 0.00242
CAGGAUCCUUUAUUAUACATT against VPS13B | inactive: 0
GGAGUUACAUAUAAUCCUATT against PRSS7 | inactive: 0.0614
GAUUUGACAUAGAUGAAGATT against METTL5 | inactive: 0.221
CAUUAGCAGAUAUACUAUUTT against EEF1E1 | active: -1.45
GCCGUUCUGUUUCAAAGGATT against ACTR10 | inactive: 0.362
CGUCCAAAAUCCAAAUAUATT against ABCG5 | inactive: 0.739
GAAGAUACAUAAGAUCGUATT against ZNF141 | inactive: 0.223
ACAAGACCCUCUCAAAAGATT against NEFH | inactive: 0.688

Sequence | median seed-adjusted z-score
GGAGUUACAUUACUUCGUUTT against UQCRC2 | inactive: -0.848
GGAUGGACCUGACUUUCAATT against TXN2 | inactive: 0.87
GGCUGUCCGACUCAACAUATT against SIGLEC12 | inactive: 0.226
CUGUUGUAAUGACAUCAUUTT against ELF2 | inactive: -0.514
ACAUUACUCUGGGAUUUAUTT against LARGE | inactive: -0.436
GGCAAUCCGGGAAGACUAATT against ADAR | inactive: 0.267
AGCUAGACCUGUGCAAAGATT against IRX5 | inactive: -0.373
GCGUCGGAGUUUCGAAAGATT against ADM | inactive: 0.65
CCAUGUCCCAGGAAGCACATT against TCAP | inactive: -0.177
CCAACUACUCCCUCAAGUATT against CRLF1 | inactive: -0.45
CGUGUACCCGUUUGACUUUTT against SGSH | inactive: 0.383
GAGAGACCAUUGUCCAGCUTT against SRPK3 | inactive: -0.643
GAGUGUCAUGGACCUGAUATT against LCN6 | inactive: 0.584
GAAUGAACUCUUUACAGAUTT against MLYCD | inactive: -0.154
GGACUUAUAUAGGGAUGUATT against ZFP14 | inactive: 0.263
AGUUCACGGUGAUCAGGAATT against ZBTB46 | inactive: 0.0546
CCAUGUGAGUGUAAGCAGUTT against ZNF490 | inactive: 0.00954
GGAUCAUGCCUAAUCCACATT against HSD17B7 | inactive: 0.0836
GCCUAGAGGACUACAAGAATT against FZD8 | inactive: -0.177
AAGAUGCUCUCCCACCUAATT against POLD4 | inactive: 0.225
AGAUUUUCAUUAGACCUCUTT against PTGDR | inactive: -0.158
GGACUGUAUGUACUUCGAUTT against JAK2 | inactive: 0.163

Sequence | median seed-adjusted z-score
UGAUAUUGCUUAGUCCAUUTT against PRLHR | inactive: 0
GCAUAGUUGACGAACCUUUTT against NPAS2 | inactive: 0.222
ACUCCUUUCUGGGUCCUAATT against PTGES | inactive: -0.0851
AGUUUCAUUUCAAUAAGUATT against HOXD1 | inactive: 0.144
GCAUUAAUAACAUUACGUUTT against ZNF236 | inactive: 0.683
GCCUUAACCGAAUUCCUCATT against LIPA | inactive: 0.535
AGCUGUUGAUUGAACAUGATT against LIMK2 | inactive: -0.0288
GAUACAUCCAUUAUACUUUTT against GNAI1 | inactive: -0.233
AAAUCUUCGUGAACUUGGATT against MMD | inactive: 0.193
AUGCUGAAAUUAUUAGGAATT against UBE2R2 | inactive: 0
UGAUCUAUACGGCUUUCAATT against HTR5A | inactive: -0.0687
GCACCCAACUGAGAUCCGATT against ALPP | inactive: 0
GCAUACAUCAUGACCGUCATT against DUSP22 | inactive: 0
GCCUGGUGCUAAUCCAUAATT against ZNF408 | inactive: 0.00381
CCAGAGACUUCAUCGUAGATT against ZNF660 | inactive: 0.251
UGAGCAUGUUUUCCGAUGATT against HSPB7 | inactive: -0.288
CAUGUUCAAGGACAACUUUTT against TUBG1 | inactive: 0.618
GGUCUAUCUUCGAGAAUAATT against SULT6B1 | inactive: 0
GCCUAGAGGAAAUACAGGATT against DDX50 | inactive: 0.359
GGAAGUACGUUCCAUACAATT against GALNT17 | inactive: 0.392
GACCCAAACAGGAACGCAATT against SCN2A | inactive: 0
CCCUUAAUUUUGUAACAGATT against SLC7A6 | inactive: -0.0877

Quoted from the entries so far (7 entries):
Sequence | median seed-adjusted z-score
GGAGAUAGAACCUUCCAGATT against HLA-B | inactive: -0.355
GGAUGUACUUUCCAAACAATT against MBTPS1 | inactive: -0.551
CGCUGGAUGCCGAAAAUGATT against ABCB10 | inactive: -0.1
GGAGAGAUAUCUGCCCUCGTT against MARVELD3 | inactive: -0.021
GGACAGUACCUGUUUAAGUTT against METT10D | inactive: 0.455
GCUCCUCUCUUAUUCGACATT against ZNF215 | inactive: 0.485
CGUCACUGAGCUCAAGAAATT against PFKL | inactive: 0

Some values from above:
GCGUCGGAGUUUCGAAAGATT against ADM | median seed-adjusted z-score: inactive: 0.65
GAGAGACCAUUGUCCAGCUTT against SRPK3 | median seed-adjusted z-score: inactive: -0.643

(continued)

Sequence | median seed-adjusted z-score
CCAGUGGAGUGGUAUCUAUTT against RBBP5 | inactive: 0.169
CACGCUUCAUUAAUCAUCATT against ZNF818 | inactive: -0.223
CCAGCCGUGUUGUAGCUAATT against S100B | inactive: 0.862
GUCUACAAAUGGUUUCUUUTT against RNF175 | inactive: 0.127
ACAACCUCUUAGACACGUATT against QSOX2 | inactive: 0.498
GGAACACUCAUGACUGUAATT against ZNF426 | inactive: 0.2
CAAUUAGGAUGACCAUUGATT against GABRE | inactive: 0.211
GGAGACGAGUGUAAAAACATT against CPM | inactive: 0.549
GAACUACUGCAACUAGACGTT against INS | inactive: 0
GCAACUAUCGUACCCAGAUTT against TMED4 | inactive: -0.895
GGAAAAGCAGAUAACCCAATT against CIB2 | inactive: 0.569
CAGAGAAACGAGUCUUUAATT against ST6GALNAC5 | inactive: -0.0321
GGACUCAGACGAGUUUUAUTT against CYP11B1 | inactive: -0.199
GGUGACCACUCGGACAGUATT against ARVCF | inactive: 0.372
GCCUACAUCUUCAAUAGCATT against SPPL3 | inactive: 0.652
ACAAAGAACUGACCCUGCATT against ZNF296 | inactive: -0.00618
GGUUCAACUUCUCAACAGATT against GGT5 | inactive: 0.307
GGUUUGAAAUGCUGCCCAATT against LRRN2 | inactive: 0.324
GCAUGCUGAUUACAAGAUATT against LEFTY2 | inactive: -0.33
GAGCUGACGUGUACUCAUATT against USP5 | inactive: 0.596
